Assay results taken from patent US20070003585A1, “Topical skin treating compositions” (STIEFEL LABORATORIES, INC., priority 2005, published 2007).
Where two headings read alike, the source gives them in different places. The source gives many values for each of these; only a part stands here.

Details: Example 10 composition, initial […]

With `CCOC(=O)c1ccc(C#Cc2ccc3c(c2)C(C)(C)CCS3)nc1` [Tazarotene] the “Tazarotene (as % w/w)” value (6 months, 6° C.) was 0.101 % w/w, the “Tazarotene (as % w/w)” value (6 months, 25° C.) was 0.091 % w/w and the “Tazarotene (as % w/w)” value (6 months, 30° C.) was 0.085 % w/w. The “Tazarotene (as % w/w)” value (6 months, 40° C.) was 0.014 % w/w, the “Tazarotene (as % w/w)” value (90 days, 6° C.) was 0.106 % w/w and the “Tazarotene (as % w/w)” value (90 days, 25° C.) was 0.088 % w/w. For the same compound, the “Tazarotene (as % w/w)” value (90 days, 30° C.) was 0.088 % w/w and the “Tazarotene (as % w/w)” value (90 days, 40° C.) was 0.076 % w/w.
